# Laboratory results: PubChem BioAssay AID1259279 (Sanger Institute, 2017)
# Purpose: 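Find kinases whose loss works with colorectal cancer drugs to kill cells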 (primary screen)
# Cells: LS180 human colorectal cancer cells
# Reagent: siRNA pool against human genes
# Conditions: anchor drug BYL719 at 1 µM, cetuximab at 5 µg/ml or trametinib at 10 nM, or DMSO vehicle only
# Measured: 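Cell viability versus a non-targeting pool, as a fraction and as a robust z-score from replicate means, plus a synergy score for each of three drugs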
# Scale: viability z-score, no drug: higher = more viable cells after knock-down; viability, no drug: higher = more viable cells; synergy score with BYL719 and synergy score with cetuximab and synergy score with trametinib: higher = stronger synthetic lethal synergy with drug
# Hit rule: 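Essential (active) calls need a no-drug viability z-score lower than -3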
# Meaning of the calls: active = essential (knock-down alone cuts viability); inactive = no change without drug
# Here is an unselected part of 794 reagents tested. Over the whole deposit, 11 (1.4%) are marked active. 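Calls reflect knock-down alone in the vehicle arm, not drug synergy.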 Unmarked entries are inactive. No viability above 1 is reported: the scale is capped. Not stated in the record: the amount of reagent, the time to read-out.
Gene,"viability z-score, no drug","viability, no drug (fraction)",synergy score with BYL719,synergy score with cetuximab,synergy score with trametinib
STK32A (GeneID 202374),0.86,1,-0.0718,-0.161,-0.108
TNK1 (GeneID 8711),-1.18,0.778,-0.0617,-0.169,0.0118
DGKK (GeneID 139189),0.86,1,0.00738,-0.0157,-0.0571
PKMYT1 (GeneID 9088),0.146,0.922,-0.0438,-0.0733,0.13
DTYMK (GeneID 1841),0.86,1,-0.148,-0.166,-0.00487
HK3 (GeneID 3101),-0.494,0.852,-0.319,-0.136,-0.114
BRD2 (GeneID 6046),0.86,1,-0.0747,-0.166,-0.121
CHD4 (GeneID 1108),-0.457,0.856,0.0292,0.22,0.0357
NIM1K (GeneID 167359),0.86,1,-0.116,-0.0959,-0.154
KIT (GeneID 3815),0.368,0.946,0.0181,-0.107,-0.103
EFNB3 (GeneID 1949),-2.34,0.651,-0.0998,0.0714,0.0273
ATM (GeneID 472),0.426,0.953,0.0477,-0.0125,0.0326
PRKD1 (GeneID 5587),-0.275,0.876,-0.0461,-0.202,-0.0285
GNE (GeneID 10020),0.86,1,-0.0742,-0.0209,0.0462
TLK1 (GeneID 9874),-1.41,0.753,-0.0947,0.0314,0.0904
RNASEL (GeneID 6041),0.105,0.918,-0.0914,-0.208,0.0229
MARK3 (GeneID 4140),-0.529,0.849,0.00499,0.0911,0.181
PRKCG (GeneID 5582),0.3,0.939,-0.192,-0.15,-0.0956
CHD9 (GeneID 80205),-0.661,0.834,-0.166,-0.111,-0.0553
GRK7 (GeneID 131890),-2.04,0.684,-0.0745,-0.28,-0.106
CRKL (GeneID 1399),-0.0146,0.905,-0.105,-0.245,-0.141
SHPK (GeneID 23729),-0.735,0.826,-0.34,-0.156,-0.151
MOS (GeneID 4342),0.265,0.935,-0.0319,-0.045,0.0199
AK4 (GeneID 205),-0.894,0.809,-0.232,-0.192,0.0426
YES1 (GeneID 7525),0.699,0.982,0.1,-0.0318,0.0186
NME1 (GeneID 4830),0.86,1,-0.201,-0.166,-0.167
WEE1 (GeneID 7465),-2.47,0.637,-0.0207,-0.102,-0.0346
MAPK9 (GeneID 5601),0.492,0.96,-0.109,-0.0335,-0.191
PRKD2 (GeneID 25865),-0.123,0.893,-0.135,-0.138,0.0343
PIK3R3 (GeneID 8503),0.86,1,-0.0946,-0.14,-0.155
CDK1 (GeneID 983),0.515,0.962,-0.0907,-0.188,-0.0905
CSNK1E (GeneID 1454),-1.2,0.776,-0.0918,-0.0156,0.0518

The list goes on (3 carried over from the part before).
Gene,"viability z-score, no drug","viability, no drug (fraction)",synergy score with BYL719,synergy score with cetuximab,synergy score with trametinib
PIK3R3 (GeneID 8503),0.86,1,-0.0946,-0.14,-0.155
CDK1 (GeneID 983),0.515,0.962,-0.0907,-0.188,-0.0905
CSNK1E (GeneID 1454),-1.2,0.776,-0.0918,-0.0156,0.0518
AK2 (GeneID 204),0.15,0.923,-0.147,-0.062,0.0163
MAP3K11 (GeneID 4296),0.86,1,-0.0904,0.00694,-0.00738
COASY (GeneID 80347),-2.8,0.601,-0.0309,0.189,0.0895
CDK10 (GeneID 8558),0.311,0.94,-0.117,-0.0534,0.0669
RBKS (GeneID 64080),-1.25,0.77,-0.215,-0.233,-0.199
ADPGK (GeneID 83440),0.261,0.935,0.0571,0.0285,-0.0394
CHEK1 (GeneID 1111),-1.22,0.773,0.119,0.0832,-0.0802
CDK8 (GeneID 1024),0.86,1,-0.094,-0.166,-0.0395
WHR1 (GeneID 8859),0.86,1,0.0286,-0.164,-0.0367
AK1 (GeneID 203),0.433,0.953,0.0605,-0.0692,0.0422
PKN3 (GeneID 29941),0.475,0.958,-0.0658,-0.000845,-0.0691
ADCK1 (GeneID 57143),0.86,1,-0.0623,0.0079,-0.00609
STK26 (GeneID 51765),0.86,1,0.0347,-0.0882,0.0551
ANKK1 (GeneID 255239),-0.0187,0.904,-0.0593,-0.102,0.0648
DAPK3 (GeneID 1613),0.391,0.949,-0.075,0.0011,0.008
PBK (GeneID 55872),-0.407,0.862,-0.242,-0.195,-0.151
STK24 (GeneID 8428),-0.385,0.864,-0.116,-0.239,0.113
AKT3 (GeneID 10000),-0.356,0.867,0.0204,-0.0582,-0.0536
MED12 (GeneID 9968),0.0704,0.914,-0.108,-0.141,-0.0816
LATS1 (GeneID 9113),-0.307,0.873,-0.0436,-0.145,-0.0311
PANK2 (GeneID 80025),0.14,0.922,-0.0211,-0.148,0.0272
PRAG1 (GeneID 157285),-1.98,0.69,0.00864,0.095,-0.0559
CDK19 (GeneID 23097),-0.384,0.864,0.0795,-0.132,0.00283
TSSK1B (GeneID 83942),0.244,0.933,-0.149,-0.0791,-0.0143
EIF2AK1 (GeneID 27102),0.746,0.988,-0.085,-0.0306,-0.151
TAB1 (GeneID 10454),0.849,0.999,0.0108,-0.167,0.0791
STK17A (GeneID 9263),-1.11,0.785,0.0219,-0.0306,0.126
XYLB (GeneID 9942),-0.212,0.883,-0.106,-0.0981,-0.0156
PRKCE (GeneID 5581),0.86,1,0.00204,0.0197,0.0912
SRPK2 (GeneID 6733),0.542,0.965,-0.0995,-0.149,-0.0983
ALPK1 (GeneID 80216),0.706,0.983,0.084,0.0507,0.0503
